According to the supplement of paper PMC10849652:
The other results are listed elsewhere or left out. Residues, ends and D or L forms follow the SMILES beside them. *: point of attachment. Cbz = O=C(OCc1ccccc1)*

Amino acid sequences for entries named in this document (tags omitted). A change or cut given only in a name is not applied to a line headed by its entry.
UniProt Q9BZF1: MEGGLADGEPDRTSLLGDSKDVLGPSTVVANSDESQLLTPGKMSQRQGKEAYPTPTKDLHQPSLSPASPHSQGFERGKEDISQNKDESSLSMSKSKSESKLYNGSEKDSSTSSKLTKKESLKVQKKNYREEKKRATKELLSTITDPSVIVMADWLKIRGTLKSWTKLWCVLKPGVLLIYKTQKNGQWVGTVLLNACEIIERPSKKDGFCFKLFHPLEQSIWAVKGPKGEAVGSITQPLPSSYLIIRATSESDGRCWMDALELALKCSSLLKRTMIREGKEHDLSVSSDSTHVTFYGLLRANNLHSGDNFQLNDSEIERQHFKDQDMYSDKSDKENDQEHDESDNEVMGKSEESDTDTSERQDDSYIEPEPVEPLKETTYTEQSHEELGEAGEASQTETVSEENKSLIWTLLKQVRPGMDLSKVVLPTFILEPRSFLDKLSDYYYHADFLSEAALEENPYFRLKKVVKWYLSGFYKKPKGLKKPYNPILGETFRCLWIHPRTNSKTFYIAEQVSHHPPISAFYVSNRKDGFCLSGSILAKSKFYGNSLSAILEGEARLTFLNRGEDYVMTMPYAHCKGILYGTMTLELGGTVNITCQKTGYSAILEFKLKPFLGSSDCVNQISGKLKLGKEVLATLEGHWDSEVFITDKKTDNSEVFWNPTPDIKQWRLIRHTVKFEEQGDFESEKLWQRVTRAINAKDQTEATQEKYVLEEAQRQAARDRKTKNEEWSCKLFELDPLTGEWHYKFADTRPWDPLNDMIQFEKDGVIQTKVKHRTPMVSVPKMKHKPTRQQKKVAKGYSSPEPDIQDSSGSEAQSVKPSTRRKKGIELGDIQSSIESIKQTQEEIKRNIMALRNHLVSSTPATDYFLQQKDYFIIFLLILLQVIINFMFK
UniProt O43913: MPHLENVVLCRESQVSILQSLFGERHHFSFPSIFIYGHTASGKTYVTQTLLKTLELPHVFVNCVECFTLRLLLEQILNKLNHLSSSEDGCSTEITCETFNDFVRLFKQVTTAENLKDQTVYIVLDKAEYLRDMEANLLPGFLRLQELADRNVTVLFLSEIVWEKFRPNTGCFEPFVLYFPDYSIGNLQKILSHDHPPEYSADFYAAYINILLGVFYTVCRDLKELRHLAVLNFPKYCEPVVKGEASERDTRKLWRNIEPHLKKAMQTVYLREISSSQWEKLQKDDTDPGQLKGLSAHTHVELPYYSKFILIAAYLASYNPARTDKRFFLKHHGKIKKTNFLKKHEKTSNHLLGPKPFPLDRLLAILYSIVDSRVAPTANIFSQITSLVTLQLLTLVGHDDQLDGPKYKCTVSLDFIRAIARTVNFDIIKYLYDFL
UniProt Q96D31, whole entry, looked up: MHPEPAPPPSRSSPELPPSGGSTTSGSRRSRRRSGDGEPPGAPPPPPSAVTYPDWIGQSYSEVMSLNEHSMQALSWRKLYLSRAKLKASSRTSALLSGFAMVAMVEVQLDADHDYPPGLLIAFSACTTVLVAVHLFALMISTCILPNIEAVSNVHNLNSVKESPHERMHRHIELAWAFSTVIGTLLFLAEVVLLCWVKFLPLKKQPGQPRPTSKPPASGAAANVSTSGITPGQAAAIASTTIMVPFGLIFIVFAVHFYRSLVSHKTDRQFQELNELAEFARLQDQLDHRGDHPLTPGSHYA
UniProt Q9NZT2: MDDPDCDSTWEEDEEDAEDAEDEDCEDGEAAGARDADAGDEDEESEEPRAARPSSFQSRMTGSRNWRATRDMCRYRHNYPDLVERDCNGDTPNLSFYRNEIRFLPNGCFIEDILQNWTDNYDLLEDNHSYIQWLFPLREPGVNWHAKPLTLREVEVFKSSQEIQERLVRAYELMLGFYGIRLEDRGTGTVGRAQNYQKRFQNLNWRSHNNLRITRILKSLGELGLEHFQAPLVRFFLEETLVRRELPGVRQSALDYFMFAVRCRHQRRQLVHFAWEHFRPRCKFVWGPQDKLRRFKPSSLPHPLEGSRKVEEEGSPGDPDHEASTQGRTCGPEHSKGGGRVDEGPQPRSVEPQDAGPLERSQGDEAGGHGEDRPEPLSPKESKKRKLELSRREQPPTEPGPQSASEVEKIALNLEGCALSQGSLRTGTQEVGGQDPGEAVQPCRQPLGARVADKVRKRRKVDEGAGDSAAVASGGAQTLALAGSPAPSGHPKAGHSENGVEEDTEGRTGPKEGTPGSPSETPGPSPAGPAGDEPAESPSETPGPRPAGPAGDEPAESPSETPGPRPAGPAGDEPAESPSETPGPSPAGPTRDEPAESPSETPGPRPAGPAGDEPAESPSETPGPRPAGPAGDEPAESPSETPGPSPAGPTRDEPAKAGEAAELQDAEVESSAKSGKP
UniProt Q9Y6R0: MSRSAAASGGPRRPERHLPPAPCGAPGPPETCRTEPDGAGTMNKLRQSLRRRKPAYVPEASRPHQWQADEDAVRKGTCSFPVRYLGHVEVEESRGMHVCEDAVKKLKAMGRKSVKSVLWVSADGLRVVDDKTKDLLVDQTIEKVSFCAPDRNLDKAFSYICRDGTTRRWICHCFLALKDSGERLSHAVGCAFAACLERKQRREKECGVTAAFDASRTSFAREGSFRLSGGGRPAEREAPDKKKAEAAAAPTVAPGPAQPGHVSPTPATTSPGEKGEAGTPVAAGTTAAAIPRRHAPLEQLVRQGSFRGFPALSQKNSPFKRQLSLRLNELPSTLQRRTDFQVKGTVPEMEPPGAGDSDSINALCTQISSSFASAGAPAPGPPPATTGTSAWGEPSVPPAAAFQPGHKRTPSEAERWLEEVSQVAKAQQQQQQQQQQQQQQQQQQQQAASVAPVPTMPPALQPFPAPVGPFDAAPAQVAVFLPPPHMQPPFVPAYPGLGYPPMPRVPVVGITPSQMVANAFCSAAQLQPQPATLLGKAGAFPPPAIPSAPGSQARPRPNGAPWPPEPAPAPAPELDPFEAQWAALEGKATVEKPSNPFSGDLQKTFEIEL
UniProt Q6N063: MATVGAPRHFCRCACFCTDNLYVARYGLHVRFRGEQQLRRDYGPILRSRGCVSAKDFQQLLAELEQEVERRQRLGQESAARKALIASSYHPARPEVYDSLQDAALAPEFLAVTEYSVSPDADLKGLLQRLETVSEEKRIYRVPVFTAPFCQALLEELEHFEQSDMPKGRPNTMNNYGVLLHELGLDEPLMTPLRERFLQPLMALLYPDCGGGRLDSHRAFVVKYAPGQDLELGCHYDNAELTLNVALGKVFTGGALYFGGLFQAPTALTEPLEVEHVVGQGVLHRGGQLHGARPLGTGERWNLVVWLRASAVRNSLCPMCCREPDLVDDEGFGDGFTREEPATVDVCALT
UniProt Q8N6M0: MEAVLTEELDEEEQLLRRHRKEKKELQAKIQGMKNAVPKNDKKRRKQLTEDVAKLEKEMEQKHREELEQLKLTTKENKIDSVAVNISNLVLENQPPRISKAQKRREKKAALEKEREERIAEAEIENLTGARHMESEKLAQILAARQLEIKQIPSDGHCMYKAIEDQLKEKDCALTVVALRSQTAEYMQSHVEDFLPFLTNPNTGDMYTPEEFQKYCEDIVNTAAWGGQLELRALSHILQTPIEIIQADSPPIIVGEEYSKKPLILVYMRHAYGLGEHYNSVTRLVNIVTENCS
UniProt Q9BW27: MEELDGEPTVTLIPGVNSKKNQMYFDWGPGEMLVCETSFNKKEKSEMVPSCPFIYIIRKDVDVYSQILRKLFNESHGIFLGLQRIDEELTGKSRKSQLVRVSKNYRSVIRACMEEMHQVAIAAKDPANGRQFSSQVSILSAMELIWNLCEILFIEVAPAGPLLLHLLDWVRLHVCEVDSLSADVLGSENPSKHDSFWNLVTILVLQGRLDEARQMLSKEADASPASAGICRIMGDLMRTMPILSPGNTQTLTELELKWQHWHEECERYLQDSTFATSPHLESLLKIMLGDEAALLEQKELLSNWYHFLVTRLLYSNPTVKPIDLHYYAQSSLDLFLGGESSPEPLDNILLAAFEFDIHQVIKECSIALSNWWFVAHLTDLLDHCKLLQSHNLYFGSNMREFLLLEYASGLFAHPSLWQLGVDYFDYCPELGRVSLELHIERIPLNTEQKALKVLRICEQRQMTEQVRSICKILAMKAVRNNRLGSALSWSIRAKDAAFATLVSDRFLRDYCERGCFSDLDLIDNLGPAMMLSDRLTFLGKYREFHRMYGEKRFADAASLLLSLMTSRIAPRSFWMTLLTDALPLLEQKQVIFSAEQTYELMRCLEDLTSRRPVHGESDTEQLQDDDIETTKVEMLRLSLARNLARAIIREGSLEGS
UniProt Q96BN8, whole entry, looked up: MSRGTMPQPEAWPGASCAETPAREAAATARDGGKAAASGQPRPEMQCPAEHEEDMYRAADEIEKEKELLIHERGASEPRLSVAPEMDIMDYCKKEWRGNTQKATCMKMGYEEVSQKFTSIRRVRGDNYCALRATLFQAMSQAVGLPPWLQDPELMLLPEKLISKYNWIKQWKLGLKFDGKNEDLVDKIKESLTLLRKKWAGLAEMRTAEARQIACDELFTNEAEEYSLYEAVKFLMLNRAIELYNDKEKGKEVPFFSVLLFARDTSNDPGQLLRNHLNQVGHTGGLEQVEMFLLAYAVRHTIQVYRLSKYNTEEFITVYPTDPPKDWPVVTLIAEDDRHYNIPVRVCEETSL
UniProt P52948: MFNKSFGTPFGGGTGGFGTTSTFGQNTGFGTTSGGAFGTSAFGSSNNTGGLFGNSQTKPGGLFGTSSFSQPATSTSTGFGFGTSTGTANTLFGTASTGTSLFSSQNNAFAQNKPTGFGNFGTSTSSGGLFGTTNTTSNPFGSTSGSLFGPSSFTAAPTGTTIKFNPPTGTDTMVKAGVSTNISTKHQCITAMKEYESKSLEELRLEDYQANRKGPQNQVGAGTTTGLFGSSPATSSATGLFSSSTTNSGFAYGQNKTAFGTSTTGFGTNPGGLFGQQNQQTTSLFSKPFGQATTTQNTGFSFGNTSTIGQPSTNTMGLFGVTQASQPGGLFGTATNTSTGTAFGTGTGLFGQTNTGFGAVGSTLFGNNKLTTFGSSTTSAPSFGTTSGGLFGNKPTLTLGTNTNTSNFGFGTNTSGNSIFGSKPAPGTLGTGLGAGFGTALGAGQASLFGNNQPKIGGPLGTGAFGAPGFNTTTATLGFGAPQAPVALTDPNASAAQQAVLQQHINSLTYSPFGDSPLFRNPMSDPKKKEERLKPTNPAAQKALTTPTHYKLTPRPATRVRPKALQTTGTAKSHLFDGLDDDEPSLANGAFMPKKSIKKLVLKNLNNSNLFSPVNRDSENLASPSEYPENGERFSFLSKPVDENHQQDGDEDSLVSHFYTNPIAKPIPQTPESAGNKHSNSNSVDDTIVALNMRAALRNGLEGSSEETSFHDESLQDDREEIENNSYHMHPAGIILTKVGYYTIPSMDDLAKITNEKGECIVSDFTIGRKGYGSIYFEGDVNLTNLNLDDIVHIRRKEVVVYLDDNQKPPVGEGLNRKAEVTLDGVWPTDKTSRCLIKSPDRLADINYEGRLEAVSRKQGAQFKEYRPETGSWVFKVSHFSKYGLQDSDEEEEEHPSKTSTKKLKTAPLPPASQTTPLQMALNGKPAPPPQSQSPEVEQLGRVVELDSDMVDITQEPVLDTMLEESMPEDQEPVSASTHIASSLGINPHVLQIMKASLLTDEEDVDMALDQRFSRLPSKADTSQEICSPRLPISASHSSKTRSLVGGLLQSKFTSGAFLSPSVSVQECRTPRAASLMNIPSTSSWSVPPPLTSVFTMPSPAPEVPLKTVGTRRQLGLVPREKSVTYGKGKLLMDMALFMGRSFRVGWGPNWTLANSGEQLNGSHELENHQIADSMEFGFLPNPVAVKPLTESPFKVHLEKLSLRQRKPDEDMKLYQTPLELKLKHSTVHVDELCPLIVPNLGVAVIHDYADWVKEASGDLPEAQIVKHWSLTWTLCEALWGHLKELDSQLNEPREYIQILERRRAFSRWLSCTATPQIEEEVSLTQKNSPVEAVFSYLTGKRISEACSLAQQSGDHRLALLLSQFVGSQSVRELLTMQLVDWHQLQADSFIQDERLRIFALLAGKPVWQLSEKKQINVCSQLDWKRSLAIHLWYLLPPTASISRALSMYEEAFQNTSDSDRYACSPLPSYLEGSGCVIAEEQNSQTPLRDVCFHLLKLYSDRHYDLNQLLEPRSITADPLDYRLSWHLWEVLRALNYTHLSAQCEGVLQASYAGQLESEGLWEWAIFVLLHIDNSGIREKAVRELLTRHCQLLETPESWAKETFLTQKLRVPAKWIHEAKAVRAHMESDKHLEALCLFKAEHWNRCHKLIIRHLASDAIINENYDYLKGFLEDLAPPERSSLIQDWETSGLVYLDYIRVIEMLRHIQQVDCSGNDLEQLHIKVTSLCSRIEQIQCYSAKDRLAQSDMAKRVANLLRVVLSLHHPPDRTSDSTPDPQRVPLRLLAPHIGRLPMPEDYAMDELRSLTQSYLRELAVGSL

Key:
Assay in all cases: log2 fold change, soluble protein after heating vs DMSO (PISA); higher = thermal stabilisation; K562 cells, 10 uM, 30 min; active = over 0.2 and 3.5 SD of the protein, either way, in both replicates (recomputed)
[1] = compound: C1COCCN1CCN2C3=CC=CC=C3N=C2NC(=O)C4=CC(=CC=C4)[N+](=O)[O-] [IRAK-1-4 Inhibitor I]
Method in brief: (§1)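 Quantification of soluble protein used TMTpro 16plex LC-MS/MS, with channel sums equalised. Samples were the supernatant after 21,000xg for 90 min of pooled aliquots from K562 cells (2×10^6 cells/mL) treated with 10 μM compound for 30 min, heated for 3 min over 48°C-58°C, and extracted in PBS with 0.5% NP-40 at 4°C. Values, from duplicates, describe thermal stability against control samples on a log2 fold-change scale.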

[2] = compound: C=CC(=O)N1CCC[C@@H](n2nc(-c3ccc(Oc4ccccc4)cc3)c3c(N)ncnc32)C1 [ibrutinib]
Method in brief: as §1

[3] = compound: CC(=O)c1cnc2ccc(-c3cc(Cl)c(O)c(Cl)c3)nc2c1N[C@H]1CC[C@H](CN(C)C)CC1
Method in brief: as §1

[4] = compound: CC(C)(C)Cn1c(N)nc2ccc(-c3[nH]c(C(C)(C)C)nc3-c3ccc(F)cc3)nc21 [ralimetinib]
Method in brief: as §1

[5] = compound: CC(C)(O)CC(=O)NCCn1ccc2ncnc(Nc3ccc(Oc4cccc(C(F)(F)F)c4)c(Cl)c3)c21
Method in brief: as §1

[6] = compound: CC(C)C1=C2N=C(C=C(N2N=C1)NCC3=CC=CC=C3)NCCCCCCN
Method in brief: as §1

[7] = compound: CC(C)C[C@@H](C=O)NC(=O)[C@H](CC(C)C)NC(=O)[C@H](CC(C)C)NC(=O)OCc1ccccc1
Method in brief: as §1

[8] = compound: CC(C)N(C[C@H]1O[C@@H](n2cnc3c(N)ncnc32)[C@H](O)[C@@H]1O)[C@H]1C[C@@H](CCc2nc3cc(C(C)(C)C)ccc3[nH]2)C1 [pinometostat]
Method in brief: as §1

[9] = compound: CC1=C(C2=C(C=C1)C(=O)C3=CC=CC=C3N2CCCN)C
Method in brief: as §1

[10] = compound: CC1=C(C=C(C=C1)NC(=O)C2=CC(=CC=C2)C(C)(C)C#N)NC3=CC4=C(C=C3)N=CN(C4=O)C
Method in brief: as §1

[11] = compound: CC1=C(C=C(C=C1)NC(=O)C2=CC(=CC=C2)N(C)C)NC(=O)C3=CC=C(C=C3)O
Method in brief: as §1

[12] = compound: CC1=CC=C(C=C1)SC2=C3C=C(SC3=CN=C2)C(=O)N
Method in brief: as §1

[13] = compound: CC1=NC(=CC=C1)C2=C(N=C(N2)C(C)(C)C)C3=CC4=NC=CN=C4C=C3
Method in brief: as §1

[14] = compound: CCCCN(Cc1ccc(C(=O)NO)cc1)C(=O)Nc1ccccc1 [Nexturastat A]
Method in brief: as §1

[15] = compound: CCCS(=O)(=O)Nc1ccc(F)c(C(=O)c2c[nH]c3ncc(-c4ccc(Cl)cc4)cc23)c1F [vemurafenib]
Method in brief: as §1

[16] = compound: CCCS(=O)(=O)Nc1ccc(F)c(C(=O)c2c[nH]c3ncc(Cl)cc23)c1F
Method in brief: as §1

[17] = compound: CCCc1cc(C)[nH]c(=O)c1CNC(=O)c1cc(-c2ccnc(N3CCN(C)CC3)c2)cc2c1cnn2C(C)C
Method in brief: as §1

[18] = compound: CCN(CC)Cc1ccc2cc(COC(=O)Nc3ccc(C(=O)NO)cc3)ccc2c1 [givinostat]
Method in brief: as §1

[19] = compound: CCN(CCCOc1ccc2c(Nc3cc(CC(=O)Nc4cccc(F)c4)[nH]n3)ncnc2c1)CCOP(=O)(O)O [barasertib]
Method in brief: as §1

[20] = compound: CC1=C(C(CC(=O)N1)C2=CC=C(C=C2)C(F)(F)F)C(=O)NC3=C(C=C4C(=C3)C=NN4)F
Method in brief: as §1

Measured: log2 fold change

OSBPL8 (UniProt Q9BZF1)
inactive: [1] -0.148 | [2] -0.042 | [3] -0.204 | [4] 0.199 | [5] -0.019 | [6] -0.378 | [7] 0.046 | [8] 0.201 | [9] 0.045 | [10] 0.209 | [11] 0.011 | [12] 0.009 | [13] -0.027 | [14] 0.109 | [15] 0.074 | [16] 0.035 | [17] 0.309 | [18] -0.03 | [19] 0.094

ORC5 (UniProt O43913)
inactive: [1] 0.024 | [2] -0.014 | [3] -0.306 | [4] 0.015 | [6] -0.134 | [7] 0.005 | [8] 0.128 | [9] 0.08 | [10] -0.193 | [11] -0.089 | [12] 0 | [13] -0.038 | [15] 0.058 | [16] 0.058 | [17] 0.058 | [18] -0.009 | [19] 0.025

ORAI1 (UniProt Q96D31)
inactive: [1] 0.053 | [2] -0.088 | [4] -0.091 | [5] -0.055 | [6] 0.038 | [7] 0.138 | [8] -0.079 | [20] 0.072 | [9] 0.042 | [11] 0 | [12] -0.004 | [13] 0.016 | [14] -0.07 | [15] 0.189 | [16] -0.028 | [17] -0.013 | [18] -0.061 | [19] -0.019

OGFR (UniProt Q9NZT2)
inactive: [1] -0.023 | [2] 0.001 | [3] -0.235 | [4] -0.014 | [5] 0.109 | [6] -0.028 | [7] -0.008 | [8] 0.149 | [9] 0.044 | [10] -0.023 | [11] 0.018 | [12] -0.022 | [13] 0.035 | [14] 0.057 | [15] 0.075 | [16] 0.002 | [17] 0.01 | [18] -0.02 | [19] 0.125

NUMBL (UniProt Q9Y6R0)
active: [3] -0.349
inactive: [1] 0.144 | [2] -0.032 | [4] -0.032 | [5] 0.044 | [6] -0.026 | [7] 0.162 | [8] 0.111 | [10] 0.011 | [11] -0.045 | [12] -0.018 | [13] -0.081 | [14] 0.121 | [15] -0.144 | [16] -0.005 | [17] 0.249 | [18] 0 | [19] 0.069

OGFOD2 (UniProt Q6N063)
inactive: [1] 0.016 | [2] -0.023 | [3] -0.102 | [4] 0.011 | [5] -0.031 | [6] -0.079 | [7] 0.002 | [8] 0.025 | [9] -0.073 | [11] -0.007 | [13] -0.091 | [14] 0.117 | [15] 0.001 | [17] 0.037 | [18] -0.041 | [19] 0.059

NUDT1 (UniProt P36639)
active: [2] 0.943 | [3] 0.816 | [4] 1.69 | [6] 0.946
inactive: [1] 0.025 | [5] -0.263 | [7] -0.082 | [8] -0.017 | [9] 0.074 | [10] -0.016 | [11] -0.058 | [12] -0.064 | [13] -0.164 | [14] -0.086 | [15] -0.004 | [16] 0.209 | [17] -0.026 | [18] -0.042 | [19] -0.03

OTUD6B (UniProt Q8N6M0)
active: [6] -0.269
inactive: [1] -0.046 | [2] -0.017 | [3] -0.02 | [4] 0.036 | [5] -0.049 | [7] 0.029 | [8] 0.053 | [9] -0.015 | [10] 0.045 | [11] -0.002 | [12] 0.124 | [13] 0.007 | [14] 0.044 | [15] 0.035 | [16] 0.14 | [17] 0.084 | [18] -0.02 | [19] 0.096

NUP85 (UniProt Q9BW27)
inactive: [1] -0.011 | [2] -0.027 | [3] -0.058 | [4] -0.036 | [5] -0.013 | [6] -0.048 | [7] -0.026 | [8] -0.033 | [9] 0.015 | [10] -0.02 | [11] 0.025 | [12] 0.102 | [13] -0.001 | [14] -0.041 | [15] 0.01 | [16] 0.019 | [17] -0.02 | [18] 0.015 | [19] 0.017

OXA1L (UniProt Q15070)
inactive: [1] 0.05 | [2] 0.011 | [3] 0.03 | [4] -0.037 | [5] 0.006 | [6] -0.209 | [7] -0.004 | [8] 0 | [9] -0.018 | [10] -0.013 | [11] 0.01 | [12] 0.02 | [13] 0.01 | [14] -0.021 | [15] 0.022 | [16] -0.013 | [17] -0.049 | [18] 0.003 | [19] -0.012

OTULIN (UniProt Q96BN8)
inactive: [1] 0.021 | [2] -0.025 | [3] -0.003 | [4] -0.01 | [5] -0.059 | [7] 0.024 | [8] 0.034 | [9] 0.008 | [10] 0.03 | [11] 0.002 | [12] 0.035 | [13] 0.015 | [14] -0.17 | [15] -0.023 | [16] 0.171 | [17] -0.018 | [18] 0.039 | [19] 0.105
active: [6] -0.362

NUP98 (UniProt P52948)
inactive: [1] -0.021 | [2] -0.048 | [3] -0.146 | [4] 0.04 | [5] 0 | [6] -0.071 | [7] 0.041 | [8] 0.03 | [9] 0.013 | [10] -0.042 | [11] 0.064 | [12] -0.003 | [13] 0.031 | [14] 0.061 | [15] 0.037 | [16] 0.068 | [17] 0.036 | [18] 0.081 | [19] 0.037
